Laboratory results from the supplement of paper PMC10849652.
The list shows a part of the results.

Protein sequences, listed by entry. Tags and fused reporters are not part of them. Lines headed by an entry give the natural chain unless they say otherwise; changes in a name come on top.
UniProt Q9NUE0: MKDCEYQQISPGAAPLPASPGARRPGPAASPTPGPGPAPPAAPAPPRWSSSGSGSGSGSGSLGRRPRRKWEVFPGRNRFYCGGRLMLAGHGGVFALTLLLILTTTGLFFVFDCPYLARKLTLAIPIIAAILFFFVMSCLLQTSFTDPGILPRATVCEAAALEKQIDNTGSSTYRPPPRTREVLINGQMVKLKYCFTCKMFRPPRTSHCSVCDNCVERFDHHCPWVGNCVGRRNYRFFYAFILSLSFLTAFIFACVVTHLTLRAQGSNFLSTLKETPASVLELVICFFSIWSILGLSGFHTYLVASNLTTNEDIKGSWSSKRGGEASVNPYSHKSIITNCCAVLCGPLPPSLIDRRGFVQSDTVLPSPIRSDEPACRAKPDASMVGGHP
UniProt O43592: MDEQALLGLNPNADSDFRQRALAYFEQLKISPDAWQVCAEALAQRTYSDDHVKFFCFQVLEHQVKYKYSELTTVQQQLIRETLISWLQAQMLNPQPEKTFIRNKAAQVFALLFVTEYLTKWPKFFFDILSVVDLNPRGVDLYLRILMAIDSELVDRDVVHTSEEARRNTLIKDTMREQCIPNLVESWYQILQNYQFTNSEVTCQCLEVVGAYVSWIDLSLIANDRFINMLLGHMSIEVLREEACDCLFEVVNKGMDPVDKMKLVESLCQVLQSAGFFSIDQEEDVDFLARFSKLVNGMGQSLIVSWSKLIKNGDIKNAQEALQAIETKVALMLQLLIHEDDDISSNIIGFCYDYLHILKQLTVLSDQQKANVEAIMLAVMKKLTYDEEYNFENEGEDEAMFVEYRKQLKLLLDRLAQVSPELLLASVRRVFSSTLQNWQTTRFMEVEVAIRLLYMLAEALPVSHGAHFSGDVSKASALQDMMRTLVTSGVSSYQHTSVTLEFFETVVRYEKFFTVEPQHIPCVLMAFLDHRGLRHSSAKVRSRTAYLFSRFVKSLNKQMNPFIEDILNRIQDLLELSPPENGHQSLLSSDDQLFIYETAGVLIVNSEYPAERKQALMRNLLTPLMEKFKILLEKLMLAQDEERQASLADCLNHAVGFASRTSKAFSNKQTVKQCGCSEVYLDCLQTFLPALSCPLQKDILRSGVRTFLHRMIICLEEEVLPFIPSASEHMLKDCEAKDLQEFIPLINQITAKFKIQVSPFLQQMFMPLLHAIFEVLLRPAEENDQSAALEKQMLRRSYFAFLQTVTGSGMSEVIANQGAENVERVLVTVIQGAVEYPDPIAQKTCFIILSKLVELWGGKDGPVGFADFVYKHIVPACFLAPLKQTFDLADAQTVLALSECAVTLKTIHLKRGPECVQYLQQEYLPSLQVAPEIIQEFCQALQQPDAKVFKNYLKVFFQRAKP
UniProt Q86U90: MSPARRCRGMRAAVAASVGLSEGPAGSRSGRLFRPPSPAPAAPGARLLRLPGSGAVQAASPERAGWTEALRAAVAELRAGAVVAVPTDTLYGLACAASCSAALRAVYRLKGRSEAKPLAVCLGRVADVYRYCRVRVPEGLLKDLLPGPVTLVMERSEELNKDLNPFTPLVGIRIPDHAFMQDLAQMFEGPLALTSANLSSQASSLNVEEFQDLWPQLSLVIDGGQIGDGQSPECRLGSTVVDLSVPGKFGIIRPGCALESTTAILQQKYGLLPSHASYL
UniProt Q8WU90: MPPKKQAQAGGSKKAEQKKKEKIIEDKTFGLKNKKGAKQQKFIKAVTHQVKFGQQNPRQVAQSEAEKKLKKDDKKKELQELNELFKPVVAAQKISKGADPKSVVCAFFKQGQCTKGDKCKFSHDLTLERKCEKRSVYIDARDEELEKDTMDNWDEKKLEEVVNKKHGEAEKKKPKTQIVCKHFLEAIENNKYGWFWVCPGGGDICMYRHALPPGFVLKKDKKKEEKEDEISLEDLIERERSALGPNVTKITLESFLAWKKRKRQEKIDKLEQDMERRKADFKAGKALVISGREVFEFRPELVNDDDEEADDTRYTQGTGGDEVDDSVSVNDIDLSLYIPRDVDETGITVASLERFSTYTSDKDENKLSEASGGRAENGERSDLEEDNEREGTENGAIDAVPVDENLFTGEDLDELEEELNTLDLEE
UniProt Q6FIF0: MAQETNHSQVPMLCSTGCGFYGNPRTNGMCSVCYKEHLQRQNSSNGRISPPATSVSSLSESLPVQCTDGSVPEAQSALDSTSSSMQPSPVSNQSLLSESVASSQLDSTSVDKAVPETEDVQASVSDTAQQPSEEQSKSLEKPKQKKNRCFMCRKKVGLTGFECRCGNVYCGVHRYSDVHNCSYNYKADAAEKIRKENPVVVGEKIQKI
UniProt Q9H5J0: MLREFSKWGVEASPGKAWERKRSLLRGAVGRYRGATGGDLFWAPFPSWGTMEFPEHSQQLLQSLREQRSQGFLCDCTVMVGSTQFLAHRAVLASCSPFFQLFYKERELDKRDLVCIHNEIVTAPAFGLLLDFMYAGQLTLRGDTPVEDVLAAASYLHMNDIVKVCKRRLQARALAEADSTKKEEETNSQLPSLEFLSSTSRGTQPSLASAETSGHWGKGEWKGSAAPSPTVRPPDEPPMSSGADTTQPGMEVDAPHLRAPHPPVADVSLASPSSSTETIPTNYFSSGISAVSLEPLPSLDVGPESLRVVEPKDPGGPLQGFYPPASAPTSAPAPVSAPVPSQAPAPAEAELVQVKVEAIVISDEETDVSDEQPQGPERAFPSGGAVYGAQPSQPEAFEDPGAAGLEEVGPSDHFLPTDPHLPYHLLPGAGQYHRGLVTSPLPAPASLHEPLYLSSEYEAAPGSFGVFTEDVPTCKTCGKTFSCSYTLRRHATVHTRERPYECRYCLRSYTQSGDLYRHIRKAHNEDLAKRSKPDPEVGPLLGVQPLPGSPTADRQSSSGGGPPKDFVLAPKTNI
UniProt Q9BYJ9: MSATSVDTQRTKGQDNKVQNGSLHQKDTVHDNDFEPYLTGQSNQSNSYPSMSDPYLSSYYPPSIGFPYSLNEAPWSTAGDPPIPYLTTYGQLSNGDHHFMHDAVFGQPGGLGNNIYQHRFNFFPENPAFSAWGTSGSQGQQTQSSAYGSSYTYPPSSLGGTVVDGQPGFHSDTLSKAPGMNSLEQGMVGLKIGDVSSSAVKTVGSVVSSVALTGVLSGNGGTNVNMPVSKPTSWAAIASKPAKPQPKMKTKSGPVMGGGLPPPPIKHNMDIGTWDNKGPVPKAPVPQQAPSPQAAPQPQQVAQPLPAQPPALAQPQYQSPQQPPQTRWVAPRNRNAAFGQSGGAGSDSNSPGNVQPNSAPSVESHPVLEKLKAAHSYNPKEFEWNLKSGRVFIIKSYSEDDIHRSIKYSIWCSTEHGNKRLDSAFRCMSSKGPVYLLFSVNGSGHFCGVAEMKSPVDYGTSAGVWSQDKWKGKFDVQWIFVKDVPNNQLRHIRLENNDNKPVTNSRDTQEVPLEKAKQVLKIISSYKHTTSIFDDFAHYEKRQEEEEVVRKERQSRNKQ
UniProt P62258: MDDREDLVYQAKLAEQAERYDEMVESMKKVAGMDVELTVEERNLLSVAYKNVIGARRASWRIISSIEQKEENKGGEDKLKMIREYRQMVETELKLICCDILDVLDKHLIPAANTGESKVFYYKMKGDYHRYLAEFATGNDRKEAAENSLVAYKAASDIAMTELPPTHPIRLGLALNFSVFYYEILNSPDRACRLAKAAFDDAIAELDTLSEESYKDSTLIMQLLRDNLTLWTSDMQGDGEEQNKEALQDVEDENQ
UniProt P61981: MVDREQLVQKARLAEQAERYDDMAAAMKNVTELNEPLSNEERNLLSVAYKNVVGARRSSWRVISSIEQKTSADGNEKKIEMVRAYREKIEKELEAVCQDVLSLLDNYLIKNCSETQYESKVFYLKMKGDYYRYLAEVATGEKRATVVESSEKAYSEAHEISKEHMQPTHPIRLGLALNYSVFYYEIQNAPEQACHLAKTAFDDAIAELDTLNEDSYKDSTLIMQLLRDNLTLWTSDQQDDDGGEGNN
UniProt P16989, whole entry, looked up: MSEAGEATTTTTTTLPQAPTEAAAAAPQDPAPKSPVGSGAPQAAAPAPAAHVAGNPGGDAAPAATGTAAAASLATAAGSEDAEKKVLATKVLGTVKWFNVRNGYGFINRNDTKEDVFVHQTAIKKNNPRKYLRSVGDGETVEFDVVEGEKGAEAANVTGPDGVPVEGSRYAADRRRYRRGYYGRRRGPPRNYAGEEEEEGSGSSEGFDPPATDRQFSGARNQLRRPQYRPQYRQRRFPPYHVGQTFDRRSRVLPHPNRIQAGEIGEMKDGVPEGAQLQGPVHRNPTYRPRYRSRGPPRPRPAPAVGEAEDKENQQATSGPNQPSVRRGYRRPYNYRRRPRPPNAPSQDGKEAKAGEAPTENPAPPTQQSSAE
UniProt O14980, whole entry, looked up: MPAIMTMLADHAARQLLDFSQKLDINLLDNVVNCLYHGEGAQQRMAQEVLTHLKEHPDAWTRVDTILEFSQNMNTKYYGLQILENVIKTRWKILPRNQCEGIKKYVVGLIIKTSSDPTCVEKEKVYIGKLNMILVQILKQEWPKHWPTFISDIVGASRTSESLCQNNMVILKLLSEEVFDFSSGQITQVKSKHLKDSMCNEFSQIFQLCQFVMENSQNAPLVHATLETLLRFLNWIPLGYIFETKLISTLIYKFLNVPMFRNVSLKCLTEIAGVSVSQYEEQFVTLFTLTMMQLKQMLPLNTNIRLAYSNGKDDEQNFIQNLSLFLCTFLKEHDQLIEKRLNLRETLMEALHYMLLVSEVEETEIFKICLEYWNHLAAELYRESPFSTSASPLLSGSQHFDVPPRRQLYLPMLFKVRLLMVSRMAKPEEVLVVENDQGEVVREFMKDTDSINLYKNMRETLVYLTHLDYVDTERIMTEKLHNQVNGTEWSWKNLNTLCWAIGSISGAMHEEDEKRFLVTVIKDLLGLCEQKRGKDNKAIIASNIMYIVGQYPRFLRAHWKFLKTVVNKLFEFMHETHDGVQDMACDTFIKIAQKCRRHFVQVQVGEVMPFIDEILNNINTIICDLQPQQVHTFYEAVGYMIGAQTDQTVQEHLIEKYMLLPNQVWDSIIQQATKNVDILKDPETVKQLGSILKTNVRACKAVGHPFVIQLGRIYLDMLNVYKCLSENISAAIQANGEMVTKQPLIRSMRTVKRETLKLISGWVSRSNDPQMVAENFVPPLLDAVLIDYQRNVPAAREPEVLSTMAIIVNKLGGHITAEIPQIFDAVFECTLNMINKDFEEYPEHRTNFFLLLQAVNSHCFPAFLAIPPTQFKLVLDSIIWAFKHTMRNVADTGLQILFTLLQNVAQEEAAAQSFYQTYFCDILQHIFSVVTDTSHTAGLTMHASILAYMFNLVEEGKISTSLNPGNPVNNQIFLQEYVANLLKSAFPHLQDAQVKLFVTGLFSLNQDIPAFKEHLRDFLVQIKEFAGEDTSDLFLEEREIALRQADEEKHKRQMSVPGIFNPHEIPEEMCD
UniProt P31946: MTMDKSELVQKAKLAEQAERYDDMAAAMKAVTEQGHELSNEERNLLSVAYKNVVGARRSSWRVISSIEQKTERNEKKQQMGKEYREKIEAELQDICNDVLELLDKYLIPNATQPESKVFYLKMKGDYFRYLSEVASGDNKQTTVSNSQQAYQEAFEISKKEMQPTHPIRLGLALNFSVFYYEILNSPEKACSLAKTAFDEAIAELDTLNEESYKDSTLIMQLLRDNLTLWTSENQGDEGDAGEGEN
UniProt Q9BSR8: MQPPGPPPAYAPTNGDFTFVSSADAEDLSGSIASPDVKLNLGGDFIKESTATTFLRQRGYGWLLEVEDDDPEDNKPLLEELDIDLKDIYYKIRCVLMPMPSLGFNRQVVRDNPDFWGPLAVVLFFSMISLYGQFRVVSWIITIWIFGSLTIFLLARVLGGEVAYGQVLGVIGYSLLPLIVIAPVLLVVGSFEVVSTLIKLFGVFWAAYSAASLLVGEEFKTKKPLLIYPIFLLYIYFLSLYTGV
UniProt Q7Z739: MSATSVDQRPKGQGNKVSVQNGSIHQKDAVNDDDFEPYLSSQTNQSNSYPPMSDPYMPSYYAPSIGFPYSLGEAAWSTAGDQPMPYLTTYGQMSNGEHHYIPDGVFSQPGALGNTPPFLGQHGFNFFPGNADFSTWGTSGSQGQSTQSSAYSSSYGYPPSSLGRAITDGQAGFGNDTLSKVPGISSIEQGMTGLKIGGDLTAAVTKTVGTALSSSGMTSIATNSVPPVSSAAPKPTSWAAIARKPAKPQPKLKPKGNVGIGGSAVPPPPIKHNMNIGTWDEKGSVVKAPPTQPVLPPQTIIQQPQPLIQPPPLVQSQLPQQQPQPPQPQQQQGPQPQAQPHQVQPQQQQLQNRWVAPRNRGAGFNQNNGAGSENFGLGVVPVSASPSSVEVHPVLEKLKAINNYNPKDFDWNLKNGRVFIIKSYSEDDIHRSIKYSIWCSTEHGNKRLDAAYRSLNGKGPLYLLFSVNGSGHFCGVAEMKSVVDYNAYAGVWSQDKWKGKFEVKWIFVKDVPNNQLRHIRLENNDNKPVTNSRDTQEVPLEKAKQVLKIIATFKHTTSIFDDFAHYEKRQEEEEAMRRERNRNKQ
UniProt P58557: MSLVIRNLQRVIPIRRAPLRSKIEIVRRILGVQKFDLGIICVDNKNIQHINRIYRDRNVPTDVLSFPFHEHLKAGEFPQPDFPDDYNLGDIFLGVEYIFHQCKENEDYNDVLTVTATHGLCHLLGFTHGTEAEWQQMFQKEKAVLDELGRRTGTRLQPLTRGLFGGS

Tests used:
Assay in all cases: log2 fold change, soluble protein after heating vs DMSO (PISA); higher = thermal stabilisation; K562 lysate, 10 uM; active = over 0.2 and 3.5 SD of the protein, either way, in both replicates (recomputed)
erlotinib = compound: C#Cc1cccc(Nc2ncnc3cc(OCCOC)c(OCCOC)cc23)c1 [erlotinib]
How it was run: (§1)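 Quantification was by TMTpro 16plex LC-MS/MS with equalised channel sums, applied to the supernatant after 21,000xg for 90 min. Samples were crude K562 extract at 1 mg/mL protein in PBS pH 7.4 with 1 mM MgCl2, treated with 10 μM compound for 30 min, heated for 3 min across 48°C-58°C, pooled and brought to 0.5% NP-40 at 4°C. Values are log-two fold changes in thermal stability relative to solvent controls, from duplicates.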

[1] = compound: C/C(=N\NC(=O)C1=CC(=CC=C1)S(=O)(=O)N2CCOCC2)/C3=C(C=CC(=C3)Cl)O
How it was run: as §1

[2] = compound: C1=CC(=CC=C1C2=NC3=C(N2)C=C(C=C3)C(=O)N)OC4=CC=C(C=C4)Cl
How it was run: as §1

[3] = compound: C1=CC2=C(C=CC(=C2)/C=C\3/C(=O)NC(=NCC4=CC=CS4)S3)N=C1
How it was run: as §1

[4] = compound: C1=CC2=NC=CN=C2C=C1/C=C/3\C(=O)NC(=O)S3
How it was run: as §1

[5] = compound: C1=CC=C(C=C1)C2=NC(=C(N2)C3=CC=NC=C3)C4=CC(=C(C=C4)Cl)O
How it was run: as §1

[6] = compound: C1=CC=C2C(=C1)C3=NNC4=CC=CC(=C43)C2=O
How it was run: as §1

[7] = compound: C1CCN(C1)C(=O)NC2=CC=CC(=C2)NC3=NC=C(C(=N3)NCCC4=CN=CN4)Br
How it was run: as §1

[8] = compound: C1CN(CCC1(CC2=CC=C(C=C2)Cl)N)C3=NC=NC4=C3C=CN4
How it was run: as §1

IRAK-1-4 Inhibitor I = compound: C1COCCN1CCN2C3=CC=CC=C3N=C2NC(=O)C4=CC(=CC=C4)[N+](=O)[O-] [IRAK-1-4 Inhibitor I]
How it was run: as §1

Measured: log2 fold change

ZDHHC18 (UniProt Q9NUE0)
inactive: erlotinib 0.265 | [1] -0.057 | [2] -0.371 | [3] -0.052 | [4] -0.135 | [5] 0.004 | [6] 0.038 | [7] -0.022 | [8] 0.075 | IRAK-1-4 Inhibitor I 0.13

ZFYVE9 (UniProt O95405)
inactive: erlotinib 0.015 | [1] -0.154 | [2] 0.045 | [3] 0.034 | [4] 0.027 | [5] 0.005 | [6] -0.003 | [7] -0.051 | [8] -0.051 | IRAK-1-4 Inhibitor I 0.134

XPOT (UniProt O43592)
inactive: erlotinib 0.017 | [1] -0.013 | [2] -0.041 | [3] -0.003 | [4] 0.032 | [5] -0.011 | [6] -0.021 | [7] -0.004 | [8] 0.025 | IRAK-1-4 Inhibitor I 0.016

XPO5 (UniProt Q9HAV4)
inactive: erlotinib 0.026 | [1] 0.024 | [2] -0.02 | [3] 0.005 | [4] 0 | [5] -0.003 | [6] -0.044 | [7] 0.008 | [8] 0.035 | IRAK-1-4 Inhibitor I -0.015

YRDC (UniProt Q86U90)
inactive: erlotinib 0.009 | [1] 0.03 | [2] -0.001 | [3] -0.018 | [4] -0.021 | [5] 0.036 | [6] 0.081 | [7] -0.065 | [8] 0.006 | IRAK-1-4 Inhibitor I -0.02

YIF1B (UniProt Q5BJH7)
inactive: erlotinib 0.014 | [1] -0.052 | [2] -0.011 | [3] 0.049 | [4] -0.027 | [5] 0.024 | [6] -0.077 | [7] -0.031 | [8] -0.014 | IRAK-1-4 Inhibitor I -0.042

ZC3H15 (UniProt Q8WU90)
inactive: erlotinib -0.014 | [1] -0.022 | [2] 0.02 | [3] 0.02 | [4] -0.028 | [5] -0.004 | [6] 0.021 | [7] 0.016 | [8] 0.034 | IRAK-1-4 Inhibitor I 0.005

ZFAND6 (UniProt Q6FIF0)
inactive: erlotinib 0.037 | [1] 0.006 | [2] -0.033 | [3] 0.013 | [4] 0.041 | [5] -0.026 | [6] 0.001 | [7] -0.006 | [8] -0.002 | IRAK-1-4 Inhibitor I 0.035

ZBTB3 (UniProt Q9H5J0)
inactive: erlotinib 0.037 | [1] 0.09 | [2] -0.014 | [3] -0.057 | [4] -0.013 | [5] 0.053 | [6] 0.146 | [7] 0 | [8] -0.032 | IRAK-1-4 Inhibitor I -0.019

YTHDF1 (UniProt Q9BYJ9)
inactive: erlotinib 0 | [1] -0.054 | [2] -0.033 | [3] -0.072 | [4] 0.106 | [5] -0.087 | [6] -0.059 | [7] 0.041 | [8] -0.02 | IRAK-1-4 Inhibitor I 0.084

YAF2 isoform 5 (UniProt Q8IY57)
inactive: erlotinib 0.012 | [1] -0.28 | [2] 0.037 | [3] 0.058 | [4] 0.124 | [5] -0.033 | [6] 0.051 | [7] 0.111 | [8] 0.002 | IRAK-1-4 Inhibitor I -0.147

YWHAE (UniProt P62258)
inactive: erlotinib -0.007 | [1] -0.018 | [2] 0.022 | [3] -0.008 | [4] -0.002 | [5] 0.004 | [6] 0.007 | [7] 0.003 | [8] 0.001 | IRAK-1-4 Inhibitor I -0.006

YES1 (UniProt P07947)
inactive: erlotinib -0.045 | [1] 0.064 | [2] 0.005 | [3] -0.045 | [4] -0.023 | [5] -0.031 | [6] -0.105 | [7] 0.027 | [8] 0.016 | IRAK-1-4 Inhibitor I 0.003

YWHAG (UniProt P61981)
inactive: erlotinib -0.006 | [1] 0.037 | [2] 0.014 | [3] 0.015 | [4] 0.004 | [5] 0.013 | [6] 0.032 | [7] 0.017 | [8] 0.009 | IRAK-1-4 Inhibitor I -0.039

Reprinted from the entries so far (eight entries):
XPO5 (UniProt Q9HAV4)
inactive: erlotinib 0.026 | [1] 0.024 | [2] -0.02 | [3] 0.005 | [4] 0 | [5] -0.003 | [6] -0.044 | [7] 0.008 | [8] 0.035 | IRAK-1-4 Inhibitor I -0.015

YRDC (UniProt Q86U90)
inactive: erlotinib 0.009 | [1] 0.03 | [2] -0.001 | [3] -0.018 | [4] -0.021 | [5] 0.036 | [6] 0.081 | [7] -0.065 | [8] 0.006 | IRAK-1-4 Inhibitor I -0.02

YIF1B (UniProt Q5BJH7)
inactive: erlotinib 0.014 | [1] -0.052 | [2] -0.011 | [3] 0.049 | [4] -0.027 | [5] 0.024 | [6] -0.077 | [7] -0.031 | [8] -0.014 | IRAK-1-4 Inhibitor I -0.042

ZC3H15 (UniProt Q8WU90)
inactive: erlotinib -0.014 | [1] -0.022 | [2] 0.02 | [3] 0.02 | [4] -0.028 | [5] -0.004 | [6] 0.021 | [7] 0.016 | [8] 0.034 | IRAK-1-4 Inhibitor I 0.005

ZFAND6 (UniProt Q6FIF0)
inactive: erlotinib 0.037 | [1] 0.006 | [2] -0.033 | [3] 0.013 | [4] 0.041 | [5] -0.026 | [6] 0.001 | [7] -0.006 | [8] -0.002 | IRAK-1-4 Inhibitor I 0.035

ZBTB3 (UniProt Q9H5J0)
inactive: erlotinib 0.037 | [1] 0.09 | [2] -0.014 | [3] -0.057 | [4] -0.013 | [5] 0.053 | [6] 0.146 | [7] 0 | [8] -0.032 | IRAK-1-4 Inhibitor I -0.019

YTHDF1 (UniProt Q9BYJ9)
inactive: erlotinib 0 | [1] -0.054 | [2] -0.033 | [3] -0.072 | [4] 0.106 | [5] -0.087 | [6] -0.059 | [7] 0.041 | [8] -0.02 | IRAK-1-4 Inhibitor I 0.084

YAF2 isoform 5 (UniProt Q8IY57)
inactive: erlotinib 0.012 | [1] -0.28 | [2] 0.037 | [3] 0.058 | [4] 0.124 | [5] -0.033 | [6] 0.051 | [7] 0.111 | [8] 0.002 | IRAK-1-4 Inhibitor I -0.147

Carrying on:

YBX3 (UniProt P16989)
inactive: erlotinib 0.002 | [1] -0.089 | [2] 0.014 | [3] -0.012 | [4] 0.004 | [5] -0.013 | [6] -0.007 | [7] 0.016 | [8] -0.012 | IRAK-1-4 Inhibitor I 0

XPO1 (UniProt O14980)
inactive: erlotinib 0.021 | [1] 0.025 | [2] -0.015 | [3] 0.017 | [4] 0.026 | [5] -0.031 | [6] -0.045 | [7] -0.005 | [8] 0.033 | IRAK-1-4 Inhibitor I 0.016

YKT6 (UniProt O15498)
inactive: erlotinib -0.064 | [1] -0.008 | [2] -0.027 | [3] 0.021 | [4] 0.01 | [5] -0.001 | [6] 0.011 | [7] 0.003 | [8] 0.007 | IRAK-1-4 Inhibitor I -0.02

YWHAB (UniProt P31946)
inactive: erlotinib -0.029 | [1] 0.044 | [2] 0.003 | [3] -0.072 | [4] -0.018 | [5] -0.014 | [6] -0.015 | [7] 0.001 | [8] -0.009 | IRAK-1-4 Inhibitor I -0.005

ZBTB43 (UniProt O43298)
inactive: erlotinib 0.063 | [1] -0.042 | [2] -0.092 | [3] 0.011 | [5] 0.001 | [6] 0.063 | [7] 0.019 | [8] 0.133 | IRAK-1-4 Inhibitor I 0.065

ZDHHC5 (UniProt Q9C0B5)
inactive: erlotinib -0.039 | [1] 0.008 | [2] 0.002 | [3] -0.027 | [4] 0.021 | [5] 0.003 | [6] -0.035 | [7] 0.002 | [8] 0.047 | IRAK-1-4 Inhibitor I 0.009

ZEB1 isoform 2 (UniProt P37275)
inactive: erlotinib -0.008 | [1] -0.064 | [2] 0.104 | [3] -0.094 | [4] 0.019 | [5] 0.037 | [6] -0.073 | IRAK-1-4 Inhibitor I 0.052

ZBTB11 (UniProt O95625)
inactive: erlotinib -0.023 | [1] -0.268 | [2] -0.083 | [3] -0.068 | [6] -0.286

XRN1 (UniProt Q8IZH2)
inactive: erlotinib 0.047 | [1] 0.056 | [2] -0.017 | [3] 0.055 | [4] 0.133 | [5] 0.036 | [6] -0.034 | [7] 0.013 | [8] -0.127 | IRAK-1-4 Inhibitor I 0.019

YIPF4 (UniProt Q9BSR8)
inactive: erlotinib -0.055 | [1] 0.025 | [2] 0.021 | [3] 0.035 | [4] -0.004 | [5] 0.006 | [6] 0.054 | [7] -0.027 | [8] 0.039 | IRAK-1-4 Inhibitor I 0.054

ZFYVE26 (UniProt Q68DK2)
inactive: erlotinib 0.049 | [1] -0.214 | [2] 0.005 | [3] -0.19 | [4] 0.142 | [5] -0.213 | [6] 0.006 | IRAK-1-4 Inhibitor I 0.211

YWHAZ (UniProt E7ESK7)
inactive: erlotinib -0.055 | [1] -0.17 | [2] -0.058 | [3] 0.093 | [4] -0.208 | [6] 0.075 | [7] 0.085 | [8] -0.063

YTHDF3 (UniProt Q7Z739)
inactive: erlotinib -0.009 | [1] -0.003 | [2] -0.035 | [3] -0.029 | [4] 0.089 | [5] -0.183 | [6] 0.003 | [7] -0.04 | [8] 0.036 | IRAK-1-4 Inhibitor I 0.12

ZC3H18 (UniProt E7ERS3)
inactive: erlotinib -0.024 | [1] -0.038 | [2] 0.027 | [3] 0.001 | [4] -0.024 | [5] -0.003 | [6] 0.004 | [7] 0 | [8] -0.014 | IRAK-1-4 Inhibitor I 0.007

YBEY (UniProt P58557)
inactive: erlotinib 0.101 | [1] -0.164 | [2] 0.009 | [3] -0.039 | [6] -0.031 | [7] -0.011 | [8] 0.111

ZC3H13 (UniProt Q5T200)
inactive: erlotinib 0.081 | [1] 0.003 | [2] 0.034 | [3] -0.027 | [4] -0.071 | [5] 0.075 | [6] -0.045 | [7] -0.016 | [8] -0.043 | IRAK-1-4 Inhibitor I 0.007

ZC3H4 (UniProt Q9UPT8)
inactive: erlotinib -0.027 | [1] -0.006 | [2] 0.035 | [3] -0.014 | [4] -0.051 | [5] -0.003 | [6] -0.01 | [7] -0.039 | [8] 0 | IRAK-1-4 Inhibitor I 0.028
